# Library screen at single concentrations

Amino acid sequences for entries named in this document (tags omitted).
UniProt I6X8D2, whole entry: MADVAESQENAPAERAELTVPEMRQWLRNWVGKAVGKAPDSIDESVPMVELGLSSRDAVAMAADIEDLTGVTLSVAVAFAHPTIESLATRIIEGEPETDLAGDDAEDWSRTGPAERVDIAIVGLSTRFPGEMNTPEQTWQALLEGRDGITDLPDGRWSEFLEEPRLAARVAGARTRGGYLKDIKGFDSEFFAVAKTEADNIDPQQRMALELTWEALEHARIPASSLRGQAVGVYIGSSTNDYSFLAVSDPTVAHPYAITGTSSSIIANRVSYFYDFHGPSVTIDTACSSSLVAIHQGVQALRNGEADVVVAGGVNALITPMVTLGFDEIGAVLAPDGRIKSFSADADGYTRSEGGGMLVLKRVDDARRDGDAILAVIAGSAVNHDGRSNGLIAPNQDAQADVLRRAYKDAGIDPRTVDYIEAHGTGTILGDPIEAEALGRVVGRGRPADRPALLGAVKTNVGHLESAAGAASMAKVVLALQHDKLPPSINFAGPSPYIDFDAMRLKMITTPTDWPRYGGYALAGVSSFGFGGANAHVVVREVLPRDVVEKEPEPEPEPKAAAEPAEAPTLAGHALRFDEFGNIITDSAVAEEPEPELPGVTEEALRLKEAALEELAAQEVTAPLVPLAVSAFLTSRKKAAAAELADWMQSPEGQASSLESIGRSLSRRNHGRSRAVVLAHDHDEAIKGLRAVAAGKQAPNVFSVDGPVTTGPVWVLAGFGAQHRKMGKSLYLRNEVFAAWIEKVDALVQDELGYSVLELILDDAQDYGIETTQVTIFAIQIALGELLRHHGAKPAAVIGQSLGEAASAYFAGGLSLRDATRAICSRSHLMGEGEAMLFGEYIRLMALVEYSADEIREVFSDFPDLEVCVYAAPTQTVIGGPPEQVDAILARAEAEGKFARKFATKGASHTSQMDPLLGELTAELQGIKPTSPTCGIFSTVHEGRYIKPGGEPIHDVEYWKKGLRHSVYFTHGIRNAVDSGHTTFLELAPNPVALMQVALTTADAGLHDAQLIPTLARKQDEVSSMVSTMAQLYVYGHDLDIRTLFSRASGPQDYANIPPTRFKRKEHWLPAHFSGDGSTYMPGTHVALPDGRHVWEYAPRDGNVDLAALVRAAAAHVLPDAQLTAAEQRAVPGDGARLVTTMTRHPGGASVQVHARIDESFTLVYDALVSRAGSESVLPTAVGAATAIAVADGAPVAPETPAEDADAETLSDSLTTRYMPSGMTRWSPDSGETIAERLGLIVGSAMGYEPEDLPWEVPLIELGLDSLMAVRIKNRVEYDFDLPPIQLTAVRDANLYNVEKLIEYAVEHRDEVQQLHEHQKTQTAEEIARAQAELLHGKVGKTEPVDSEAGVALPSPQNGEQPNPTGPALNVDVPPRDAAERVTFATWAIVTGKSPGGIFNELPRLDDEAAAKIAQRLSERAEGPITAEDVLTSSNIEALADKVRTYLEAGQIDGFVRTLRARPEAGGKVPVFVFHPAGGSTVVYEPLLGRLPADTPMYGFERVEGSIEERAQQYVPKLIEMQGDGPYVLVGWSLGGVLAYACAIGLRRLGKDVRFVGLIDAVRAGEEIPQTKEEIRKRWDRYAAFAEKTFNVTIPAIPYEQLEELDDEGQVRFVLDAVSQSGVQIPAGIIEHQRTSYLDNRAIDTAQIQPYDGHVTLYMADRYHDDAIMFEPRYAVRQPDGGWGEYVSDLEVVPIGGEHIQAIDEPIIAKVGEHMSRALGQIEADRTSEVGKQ
UniProt P9WPC5, whole entry: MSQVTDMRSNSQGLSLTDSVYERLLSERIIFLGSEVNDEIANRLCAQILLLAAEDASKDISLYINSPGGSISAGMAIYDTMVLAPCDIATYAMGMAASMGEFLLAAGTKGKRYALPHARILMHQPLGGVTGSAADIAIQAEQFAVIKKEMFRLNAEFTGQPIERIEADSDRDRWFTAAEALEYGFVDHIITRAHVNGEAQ
UniProt P9WPC3, whole entry partner: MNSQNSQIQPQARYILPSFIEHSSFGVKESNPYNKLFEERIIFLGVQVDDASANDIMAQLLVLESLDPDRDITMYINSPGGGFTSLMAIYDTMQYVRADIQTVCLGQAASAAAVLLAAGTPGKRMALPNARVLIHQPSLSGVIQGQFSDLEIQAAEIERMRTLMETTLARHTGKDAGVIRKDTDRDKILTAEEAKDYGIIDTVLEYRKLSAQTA

Source: ChEMBL document CHEMBL3988442, “University of Dundee, Small-Polar-MMV Screening Library” (2021).

Leishmania in macrophages: 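Cell assay of Leishmania donovani living inside macrophages; the read-out is not stated. Concentration: 30 µM. Direction is inferred from retests: higher values go with stronger inhibition. Of about 69,000 compounds tested this way, about 1,000 (1.5%) reached 50% or more in at least one test.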
Pks13 thioesterase: 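Enzyme assay of the thioesterase domain of polyketide synthase 13; the read-out is not stated. Target: Polyketide synthase Pks13, Mycobacterium tuberculosis (UniProt I6X8D2). Tested at 30 µM. Higher reads as stronger inhibition (inferred from which compounds were picked for retests). Size under these conditions: about 67,000 compounds, about 300 of them at 50% or above in at least one test.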
ClpP1P2: 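Protease assay of ClpP1P2, read by the AMC dye that it sets free. Target: ClpP1P2, Mycobacterium tuberculosis (UniProt P9WPC5 and UniProt P9WPC3). Concentration: 50 µM. Direction is inferred from only a few compounds that gave an IC50; most scored high, so higher reads as stronger inhibition. Most other retested compounds had strongly negative values. Of about 69,000 compounds tested this way, about 10 (0.015%) reached 50% or more in at least one test.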
T. brucei: 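Whole-parasite assay of Trypanosoma brucei over 72 hours; the read-out is not stated. Compounds at 30 µM. The record gives no direction; compounds that gave an IC50 in retests scored well above the rest, so higher reads as stronger inhibition. Values scatter widely below zero; nearly all retest evidence comes from the higher of the two concentrations used. Size under these conditions: about 64,000 compounds, about 940 of them at 50% or above in at least one test.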

Each number is a percent effect as filed.
The record does not define 0% and 100%; most values in the screen are far below 50% and negative numbers occur (in some assays of this library far below -100).
Compounds were drawn at random from those tested, without regard to their results.
Two or more numbers in one place are separate tests of the same structure; such repeats can differ widely.
A dash means the value is not listed here; it may have been measured.

| SMILES | Leishmania in macrophages | Pks13 thioesterase | ClpP1P2 | T. brucei |
|---|---|---|---|---|
| `Cc1cnc(C(=O)NCc2ccnc(N(C)C)c2)cn1` | 10.48% | -10.44% | -20.74% | - |
| `CCC(C(=O)N1CCS(=O)(=O)CC1)n1cccn1` (centres undefined) | 37.09% | - | -13.95% | -2.378% |
| `CN(C(=O)Cn1nc(-c2ccccc2)ccc1=O)C1CCS(=O)(=O)C1` (centres undefined) | -13.08% | -16.02% | -5.34% | -35.84% |
| `Cc1cc(F)c(S(=O)(=O)NCC(C)(C)N)cc1F.Cl` | -8.928% | - | - | -16.06% |
| `CCc1nc(CN2CCCN(C(=O)c3occc3C)CC2)cs1` | 20.25% | -6.331% | -14.14% | 17.82% |
| `CC(C)c1nc2n(n1)CC(Nc1ncnc3ccccc13)CC2` (centres undefined) | 41.52% | -31.18% | -2.029% | - |
| `CN(C)CC1(O)CCCN(C(=O)c2cnc(-c3ccccn3)nc2)C1` (centres undefined) | 10.71% | -29.62% | -8.958% | -1.981% |
| `Cc1oncc1C(=O)N1CC2CC1(C(=O)NCc1ccco1)C2` | 8.155% | -25.17% | -12.77% | -2.787% |
| `COc1cccc(CC(=O)N2CC[C@@H](OC)[C@@H]2Cc2cccnc2)c1` | - | 9.405% | -5.18% | - |
| `Cc1ccc(C(=O)N2CCc3ccc(=O)n(CCN(C)C)c3CC2)o1.O=C(O)C(F)(F)F` | -12.09% | - | - | -32.24% |
| `CCS(=O)(=O)CCN(CC1CCCO1)C1CCCC1` (centres undefined) | 36.87% | -26.6% | -2.742% | -35.07% |
| `Fc1cccc(CN2CCC3(CCCN3c3ncccn3)CC2)c1` | - | -0.822% | 2.935% | - |
| `O=C(NCc1cccnc1)C1=NOC2(CCN(S(=O)(=O)C3CC3)C2)C1` (centres undefined) | 14.89% | -20.19% | -1.735% | 0.4216% |
| `CC(C)OCc1cccc(NC(=O)N2CCCC(CCC(N)=O)C2)c1` (centres undefined) | 6.189% | -8.15% | 2.873% | 13.11% |
| `O=C(CC(F)(F)F)NCC(O)c1ccc2ccccc2c1` (centres undefined) | 14.24% | -17.01% | -1.493% | -3.446% |
| `[H][C@@]12CCN(Cc3scnc3C)C[C@@]1([H])O[C@@H](c1ccncn1)C2` | 20.12% | - | - | -16.81% |
| `CCNc1ccnc(N2CCN(Cc3ncccc3C)CC2)n1` | 4.672% | -17.34% | -5.55% | -31.5% |
| `Cc1noc(C)c1-c1cncc(C2CCCN2Cc2cncnc2)n1` (centres undefined) | 21.29% | -15.24% | -3.674% | -12.01% |
| `CC(C)CN1CCCC2(CCN(c3ccc(C#N)cn3)C2)C1` (centres undefined) | - | 23.27% | 0.8167% | - |
| `c1cnnc(N2CCCC2CNCc2cnc(N3CCCC3)nc2)c1` (centres undefined) | 6.69% | -6.446% | -4.363% | -17.92% |
| `Cc1ccc(C(=O)N2CCCc3c(c(=O)n(C)n3C)C2)o1` | 8.446% & 1.21% | -0.8872% | -4.066% | -112.9% |
| `O=C(Cc1cccs1)Nc1cnn(C2CCOCC2)c1` | 0.2364% | 6.278% | -0.3861% | -10.08% |
| `COc1ncccc1CN1C[C@H]2CCN(c3ccc(C)nn3)C[C@H]2C1` | - | 1.474% | 4.62% | - |
| `O=C(NCCCC(=O)N1Cc2ccccc2C1)NCc1nccs1` | 28.98% | -11.57% | -10.9% | -5.794% |
| `Cc1ccc(C(=O)NC(C)CN2CCCC2=O)c(=O)[nH]1` (centres undefined) | 6.193% | -2.59% | -0.7011% | -70.7% |
| `CS(=O)(=O)N1CCOCC2(CCN(C(=O)c3cccnc3)CC2)C1` | - | -11.84% | 1.333% | - |
| `COCCNC(=O)Cn1cc(OCc2ccccc2)c(=O)cc1CO` | -22.83% | 7.557% | 3.095% | 3.997% |
| `CN1C[C@H](c2ccccc2)[C@H]2CN(C(=O)Cc3ccc(O)cc3)CC[C@H]21` | - | 13.19% | 3.703% | - |
| `Cc1cc(C)nc(CCNC(=O)[C@H]2CNC[C@@H](C(=O)N3CCCC3)C2)n1` | -7.92% | -10.74% | 0.04597% | -32.4% |
| `Nc1nc(CNc2ncnc3c2CCN(Cc2ccoc2)CC3)cs1` | -7.181% | -24.22% | -17.07% | -12.55% |
| `CCOCCN1CCC(C(=O)c2cc(F)ccc2F)CC1` | -1.202% | -20.04% | 19.34% | -38.07% |
| `Cc1noc([C@@]23CCO[C@@H]2CCN(CC2CCOCC2)C3)n1` | - | 6.662% | -1.234% | - |
| `COCCOc1ccc(NC(=O)N2CCCC2c2ccncc2)cn1` (centres undefined) | 14.29% | -23.12% | -0.9325% | -7.403% |
| `O=C(CCc1cscn1)NS(=O)(=O)c1ccc2c(c1)CCC2` | -18.71% | -12.11% | -14.34% | -17.82% |
| `N#CCCN(Cc1ccco1)C(=O)c1ccc(OCC2CC2)cc1` | 21.31% | -24.4% | 0.8073% | -10.79% |